Data: US20240124437A1, “INJECTABLE LURASIDONE SUSPENSION AND PREPARATION METHOD THEREFOR” (Sichuan Kelun Pharmaceutical Research Institute Co., Ltd., priority 2021, published 2024)
For at least one compound, name, drawing or mass did not settle the structure.

Tests used:
[1] = Particle size detection of precipitated lurasidone crystals (Malvern Mastersizer 3000 wet method); assay type: physicochemical; details: for Sample particle size (Dv50): Example 7, two-stage cooling, shearing 8000 rpm; for particle size (Dv50) of the obtained lurasidone: dried crystals of Examples 1 to 4, Malvern Mastersizer 3000
[2] = Comparison of wetting effects of HS 15 and Tween 20 on lurasidone (particle size detection); assay type: physicochemical
[3] = stirred at 600 rpm for 50 minutes in the dispersing agent, Test Sample 1 is the raw material
[4] = Example 5, crystals from n-propanol, effect of shearing conditions
[5] = Example 6, effect of cooling medium temperature, shear line speed 6.3 m/s
[6] = Example 6, effect of cooling medium temperature, shear line speed 6.3 m/s, listed as Sample 4

## O=C1[C@@H]2[C@H]3CC[C@H](C3)[C@@H]2C(=O)N1C[C@@H]1CCCC[C@H]1CN1CCN(c2nsc3ccccc23)CC1 [Sample 9, lurasidone]
[1]
  Sample particle size (Dv50): 15.562 μm

## O=C1[C@@H]2[C@H]3CC[C@H](C3)[C@@H]2C(=O)N1C[C@@H]1CCCC[C@H]1CN1CCN(c2nsc3ccccc23)CC1 [Sample 11, lurasidone]
[1]
  Sample particle size (Dv50): 10.599 μm

## O=C1[C@@H]2[C@H]3CC[C@H](C3)[C@@H]2C(=O)N1C[C@@H]1CCCC[C@H]1CN1CCN(c2nsc3ccccc23)CC1 [Sample 7, lurasidone]
[1]
  Sample particle size (Dv50): 17.967 μm

## O=C1[C@@H]2[C@H]3CC[C@H](C3)[C@@H]2C(=O)N1C[C@@H]1CCCC[C@H]1CN1CCN(c2nsc3ccccc23)CC1 [Example 1, lurasidone]
[1]
  particle size (Dv50) of the obtained lurasidone: 16.320 μm
[2]; [3]
  Particle size distribution Dv10: 7.231 μm
  Particle size distribution Dv50: 16.320 μm
  Particle size distribution Dv90: 34.891 μm

## O=C1[C@@H]2[C@H]3CC[C@H](C3)[C@@H]2C(=O)N1C[C@@H]1CCCC[C@H]1CN1CCN(c2nsc3ccccc23)CC1 [Sample 3, lurasidone]
[1]; [4]
  Particle size distribution Dv10: 4.927 μm
  Particle size distribution Dv50: 11.436 μm
  Particle size distribution Dv90: 24.500 μm

## O=C1[C@@H]2[C@H]3CC[C@H](C3)[C@@H]2C(=O)N1C[C@@H]1CCCC[C@H]1CN1CCN(c2nsc3ccccc23)CC1 [Sample 5, lurasidone]
[1]; [5]
  Particle size distribution Dv10: 5.306 μm
  Particle size distribution Dv50: 13.535 μm
  Particle size distribution Dv90: 30.483 μm

## O=C1[C@@H]2[C@H]3CC[C@H](C3)[C@@H]2C(=O)N1C[C@@H]1CCCC[C@H]1CN1CCN(c2nsc3ccccc23)CC1 [Example 4, lurasidone]
[1]
  particle size (Dv50) of the obtained lurasidone: 108.3 μm

## O=C1[C@@H]2[C@H]3CC[C@H](C3)[C@@H]2C(=O)N1C[C@@H]1CCCC[C@H]1CN1CCN(c2nsc3ccccc23)CC1 [lurasidone]
[2]; in the HS 15 solution (1.2%)
  particle size of the sample compared with that of the raw material: consistent
[2]; in the Tween 20 solution (1.2%)
  particle size of the sample relative to the particle size of the raw material: about 1.2 times

## O=C1[C@@H]2[C@H]3CC[C@H](C3)[C@@H]2C(=O)N1C[C@@H]1CCCC[C@H]1CN1CCN(c2nsc3ccccc23)CC1 [Sample 6, lurasidone]
[1]; [5]
  Particle size distribution Dv10: 4.551 μm
  Particle size distribution Dv50: 10.963 μm
  Particle size distribution Dv90: 25.217 μm

## O=C1[C@@H]2[C@H]3CC[C@H](C3)[C@@H]2C(=O)N1C[C@@H]1CCCC[C@H]1CN1CCN(c2nsc3ccccc23)CC1 [Example 2, lurasidone]
[1]
  particle size (Dv50) of the obtained lurasidone: 71.7691 μm

## O=C1[C@@H]2[C@H]3CC[C@H](C3)[C@@H]2C(=O)N1C[C@@H]1CCCC[C@H]1CN1CCN(c2nsc3ccccc23)CC1 [Example 3, lurasidone]
[1]
  particle size (Dv50) of the obtained lurasidone: 32.319 μm

## O=C1[C@@H]2[C@H]3CC[C@H](C3)[C@@H]2C(=O)N1C[C@@H]1CCCC[C@H]1CN1CCN(c2nsc3ccccc23)CC1 [Sample 10, lurasidone]
[1]
  Sample particle size (Dv50): 15.254 μm

## O=C1[C@@H]2[C@H]3CC[C@H](C3)[C@@H]2C(=O)N1C[C@@H]1CCCC[C@H]1CN1CCN(c2nsc3ccccc23)CC1 [Sample 2, lurasidone]
[1]; [4]
  Particle size distribution Dv10: 6.114 μm
  Particle size distribution Dv50: 15.412 μm
  Particle size distribution Dv90: 33.430 μm
[1]; [6]
  Particle size distribution Dv10: 6.114 μm
  Particle size distribution Dv50: 15.412 μm
  Particle size distribution Dv90: 33.430 μm

## O=C1[C@@H]2[C@H]3CC[C@H](C3)[C@@H]2C(=O)N1C[C@@H]1CCCC[C@H]1CN1CCN(c2nsc3ccccc23)CC1 [Sample 8, lurasidone]
[1]
  Sample particle size (Dv50): 15.457 μm

## O=C1[C@@H]2[C@H]3CC[C@H](C3)[C@@H]2C(=O)N1C[C@@H]1CCCC[C@H]1CN1CCN(c2nsc3ccccc23)CC1 [Sample 1, lurasidone]
[1]; [4]
  Particle size distribution Dv10: 12,100 μm
  Particle size distribution Dv50: 42.270 μm
  Particle size distribution Dv90: 120.524 μm
